From the supplement of paper PMC10849652
The list shows a part of the results.

The chains behind the UniProt entries cited, without tags or fusion partners. Where a name states a change or a piece, a line headed by the entry shows the natural chain unless it says otherwise.
UniProt Q9NQ55: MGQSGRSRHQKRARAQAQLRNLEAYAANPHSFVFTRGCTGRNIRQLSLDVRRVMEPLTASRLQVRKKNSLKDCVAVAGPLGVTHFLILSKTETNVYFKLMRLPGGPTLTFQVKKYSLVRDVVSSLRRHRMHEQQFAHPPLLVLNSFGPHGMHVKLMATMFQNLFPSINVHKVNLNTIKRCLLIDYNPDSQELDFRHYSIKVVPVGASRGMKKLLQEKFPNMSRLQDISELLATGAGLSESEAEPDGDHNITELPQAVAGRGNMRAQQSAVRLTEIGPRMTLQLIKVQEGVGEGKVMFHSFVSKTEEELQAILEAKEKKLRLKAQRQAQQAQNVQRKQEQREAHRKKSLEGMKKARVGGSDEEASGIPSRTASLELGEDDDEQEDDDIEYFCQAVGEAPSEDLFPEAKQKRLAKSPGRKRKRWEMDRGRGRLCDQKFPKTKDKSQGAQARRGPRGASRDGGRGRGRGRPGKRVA
UniProt Q9H2U2: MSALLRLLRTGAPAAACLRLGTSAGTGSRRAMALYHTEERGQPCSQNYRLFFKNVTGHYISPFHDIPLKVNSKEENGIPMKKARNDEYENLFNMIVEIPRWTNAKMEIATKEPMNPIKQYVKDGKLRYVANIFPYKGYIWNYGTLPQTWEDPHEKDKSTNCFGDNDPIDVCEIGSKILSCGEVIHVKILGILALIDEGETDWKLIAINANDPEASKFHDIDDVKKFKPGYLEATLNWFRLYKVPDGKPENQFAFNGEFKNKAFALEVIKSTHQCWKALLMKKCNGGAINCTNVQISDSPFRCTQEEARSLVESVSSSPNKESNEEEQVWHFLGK
UniProt P0CAP2, whole entry, looked up: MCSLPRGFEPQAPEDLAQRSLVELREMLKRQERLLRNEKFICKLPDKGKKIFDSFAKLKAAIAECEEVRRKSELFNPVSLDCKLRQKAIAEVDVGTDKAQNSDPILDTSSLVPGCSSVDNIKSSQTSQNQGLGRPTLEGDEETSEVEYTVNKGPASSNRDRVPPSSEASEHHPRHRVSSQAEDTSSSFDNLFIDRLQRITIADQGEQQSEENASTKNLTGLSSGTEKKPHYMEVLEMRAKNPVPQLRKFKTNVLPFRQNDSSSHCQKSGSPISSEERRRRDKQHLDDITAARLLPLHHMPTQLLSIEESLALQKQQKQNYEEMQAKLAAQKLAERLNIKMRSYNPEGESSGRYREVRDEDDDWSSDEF
UniProt P62937, whole entry, looked up: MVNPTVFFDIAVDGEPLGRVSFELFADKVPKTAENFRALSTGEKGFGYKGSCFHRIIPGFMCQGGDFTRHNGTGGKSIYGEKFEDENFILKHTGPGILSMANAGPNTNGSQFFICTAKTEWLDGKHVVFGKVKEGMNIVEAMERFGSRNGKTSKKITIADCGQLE
UniProt Q6UW63: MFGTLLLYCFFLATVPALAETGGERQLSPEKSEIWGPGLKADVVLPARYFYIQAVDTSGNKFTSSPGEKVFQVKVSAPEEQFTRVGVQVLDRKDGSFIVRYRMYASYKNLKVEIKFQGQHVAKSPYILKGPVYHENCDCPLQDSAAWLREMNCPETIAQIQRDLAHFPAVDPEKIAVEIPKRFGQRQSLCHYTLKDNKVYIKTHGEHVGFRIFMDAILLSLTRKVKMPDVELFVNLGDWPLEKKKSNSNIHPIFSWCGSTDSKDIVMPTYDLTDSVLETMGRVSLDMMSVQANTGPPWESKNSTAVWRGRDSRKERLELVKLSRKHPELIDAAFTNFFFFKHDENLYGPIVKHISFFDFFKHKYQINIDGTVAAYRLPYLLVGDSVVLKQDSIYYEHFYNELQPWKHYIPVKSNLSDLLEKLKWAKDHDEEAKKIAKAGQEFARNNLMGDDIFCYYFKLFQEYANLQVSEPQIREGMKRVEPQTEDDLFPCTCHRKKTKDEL
UniProt O75817: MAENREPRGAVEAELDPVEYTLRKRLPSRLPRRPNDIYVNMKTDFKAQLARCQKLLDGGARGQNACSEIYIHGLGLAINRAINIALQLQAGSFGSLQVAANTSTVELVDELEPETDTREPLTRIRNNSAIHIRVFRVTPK
UniProt P53350, whole entry, looked up: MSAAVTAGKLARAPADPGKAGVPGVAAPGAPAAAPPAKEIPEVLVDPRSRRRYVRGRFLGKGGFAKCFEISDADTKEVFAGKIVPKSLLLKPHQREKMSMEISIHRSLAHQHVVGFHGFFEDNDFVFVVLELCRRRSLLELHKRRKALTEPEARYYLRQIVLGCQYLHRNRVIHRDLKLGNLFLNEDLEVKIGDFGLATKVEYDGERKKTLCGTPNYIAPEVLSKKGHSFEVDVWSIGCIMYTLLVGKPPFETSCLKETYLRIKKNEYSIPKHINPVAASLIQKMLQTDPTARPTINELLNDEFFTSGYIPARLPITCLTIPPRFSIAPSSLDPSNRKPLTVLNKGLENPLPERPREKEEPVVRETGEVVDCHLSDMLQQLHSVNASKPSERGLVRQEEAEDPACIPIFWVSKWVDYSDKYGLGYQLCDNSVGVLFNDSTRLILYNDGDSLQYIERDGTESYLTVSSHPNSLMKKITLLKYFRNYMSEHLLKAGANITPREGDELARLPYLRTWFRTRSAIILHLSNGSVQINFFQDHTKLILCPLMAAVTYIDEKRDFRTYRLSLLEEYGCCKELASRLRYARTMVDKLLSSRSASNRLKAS
UniProt Q8NA72: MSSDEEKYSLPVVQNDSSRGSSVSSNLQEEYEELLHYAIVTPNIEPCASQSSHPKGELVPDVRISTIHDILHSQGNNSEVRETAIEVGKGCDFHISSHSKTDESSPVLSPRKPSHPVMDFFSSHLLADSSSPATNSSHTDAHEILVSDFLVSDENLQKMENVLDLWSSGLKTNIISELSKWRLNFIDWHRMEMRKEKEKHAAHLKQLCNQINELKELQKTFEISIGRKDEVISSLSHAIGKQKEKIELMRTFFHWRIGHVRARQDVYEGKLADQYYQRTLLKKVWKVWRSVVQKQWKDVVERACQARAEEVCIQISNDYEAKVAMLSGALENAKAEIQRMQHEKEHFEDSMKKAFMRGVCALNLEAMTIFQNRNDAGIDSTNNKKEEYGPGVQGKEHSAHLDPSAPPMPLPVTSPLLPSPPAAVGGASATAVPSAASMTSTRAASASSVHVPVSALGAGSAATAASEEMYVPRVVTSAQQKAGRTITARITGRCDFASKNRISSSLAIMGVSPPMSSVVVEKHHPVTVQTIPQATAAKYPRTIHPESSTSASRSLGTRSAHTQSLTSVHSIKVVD
UniProt Q9H1D9: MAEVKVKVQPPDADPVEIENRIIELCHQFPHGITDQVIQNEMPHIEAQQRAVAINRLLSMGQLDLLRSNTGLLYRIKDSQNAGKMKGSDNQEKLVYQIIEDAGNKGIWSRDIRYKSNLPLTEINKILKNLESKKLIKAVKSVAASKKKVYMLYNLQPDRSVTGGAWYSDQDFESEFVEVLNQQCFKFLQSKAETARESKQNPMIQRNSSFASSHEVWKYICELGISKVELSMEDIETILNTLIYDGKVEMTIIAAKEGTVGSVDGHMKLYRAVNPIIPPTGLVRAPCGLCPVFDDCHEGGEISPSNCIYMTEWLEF
UniProt P49005: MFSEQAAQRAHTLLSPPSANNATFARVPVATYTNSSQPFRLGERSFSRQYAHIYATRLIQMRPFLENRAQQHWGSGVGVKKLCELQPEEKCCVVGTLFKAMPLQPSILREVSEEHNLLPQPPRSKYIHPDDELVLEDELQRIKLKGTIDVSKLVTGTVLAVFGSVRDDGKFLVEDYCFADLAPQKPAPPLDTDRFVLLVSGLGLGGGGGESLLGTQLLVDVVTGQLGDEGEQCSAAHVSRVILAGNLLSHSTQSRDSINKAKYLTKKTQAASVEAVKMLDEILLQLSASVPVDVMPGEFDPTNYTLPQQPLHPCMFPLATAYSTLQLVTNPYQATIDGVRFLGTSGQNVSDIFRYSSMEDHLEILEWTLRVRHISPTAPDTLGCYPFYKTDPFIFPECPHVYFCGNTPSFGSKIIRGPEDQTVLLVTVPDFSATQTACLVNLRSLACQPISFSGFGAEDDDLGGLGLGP
UniProt O00411: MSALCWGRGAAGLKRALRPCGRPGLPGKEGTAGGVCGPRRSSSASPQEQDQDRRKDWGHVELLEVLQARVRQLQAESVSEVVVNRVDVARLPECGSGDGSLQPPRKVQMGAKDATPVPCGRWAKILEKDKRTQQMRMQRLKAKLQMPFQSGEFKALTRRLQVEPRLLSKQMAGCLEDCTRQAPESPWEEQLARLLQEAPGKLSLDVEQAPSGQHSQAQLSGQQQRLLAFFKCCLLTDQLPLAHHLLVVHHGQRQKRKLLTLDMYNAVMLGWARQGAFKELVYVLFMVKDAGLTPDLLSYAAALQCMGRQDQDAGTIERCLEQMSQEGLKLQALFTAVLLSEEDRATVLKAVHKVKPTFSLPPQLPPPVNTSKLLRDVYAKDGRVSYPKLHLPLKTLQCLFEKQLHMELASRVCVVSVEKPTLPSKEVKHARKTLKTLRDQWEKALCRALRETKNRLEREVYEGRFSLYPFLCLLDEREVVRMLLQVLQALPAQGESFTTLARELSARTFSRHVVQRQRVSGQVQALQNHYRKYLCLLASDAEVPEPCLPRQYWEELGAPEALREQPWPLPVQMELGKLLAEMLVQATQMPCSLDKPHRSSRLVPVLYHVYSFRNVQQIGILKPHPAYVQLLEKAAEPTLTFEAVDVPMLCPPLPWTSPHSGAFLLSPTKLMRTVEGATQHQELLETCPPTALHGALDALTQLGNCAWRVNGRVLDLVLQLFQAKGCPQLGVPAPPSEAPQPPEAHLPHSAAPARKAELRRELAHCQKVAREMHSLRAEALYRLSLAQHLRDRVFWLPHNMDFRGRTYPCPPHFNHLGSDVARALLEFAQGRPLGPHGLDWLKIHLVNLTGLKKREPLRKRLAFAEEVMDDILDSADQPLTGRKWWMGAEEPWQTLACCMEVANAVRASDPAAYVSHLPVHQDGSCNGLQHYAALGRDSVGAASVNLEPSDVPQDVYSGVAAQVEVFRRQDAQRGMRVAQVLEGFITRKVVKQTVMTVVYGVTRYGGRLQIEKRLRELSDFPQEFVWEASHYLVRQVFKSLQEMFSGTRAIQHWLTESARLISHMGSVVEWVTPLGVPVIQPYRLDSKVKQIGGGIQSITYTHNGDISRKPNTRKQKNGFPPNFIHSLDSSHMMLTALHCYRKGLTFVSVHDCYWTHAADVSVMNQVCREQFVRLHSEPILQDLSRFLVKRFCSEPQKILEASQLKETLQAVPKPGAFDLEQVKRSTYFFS
UniProt P14859: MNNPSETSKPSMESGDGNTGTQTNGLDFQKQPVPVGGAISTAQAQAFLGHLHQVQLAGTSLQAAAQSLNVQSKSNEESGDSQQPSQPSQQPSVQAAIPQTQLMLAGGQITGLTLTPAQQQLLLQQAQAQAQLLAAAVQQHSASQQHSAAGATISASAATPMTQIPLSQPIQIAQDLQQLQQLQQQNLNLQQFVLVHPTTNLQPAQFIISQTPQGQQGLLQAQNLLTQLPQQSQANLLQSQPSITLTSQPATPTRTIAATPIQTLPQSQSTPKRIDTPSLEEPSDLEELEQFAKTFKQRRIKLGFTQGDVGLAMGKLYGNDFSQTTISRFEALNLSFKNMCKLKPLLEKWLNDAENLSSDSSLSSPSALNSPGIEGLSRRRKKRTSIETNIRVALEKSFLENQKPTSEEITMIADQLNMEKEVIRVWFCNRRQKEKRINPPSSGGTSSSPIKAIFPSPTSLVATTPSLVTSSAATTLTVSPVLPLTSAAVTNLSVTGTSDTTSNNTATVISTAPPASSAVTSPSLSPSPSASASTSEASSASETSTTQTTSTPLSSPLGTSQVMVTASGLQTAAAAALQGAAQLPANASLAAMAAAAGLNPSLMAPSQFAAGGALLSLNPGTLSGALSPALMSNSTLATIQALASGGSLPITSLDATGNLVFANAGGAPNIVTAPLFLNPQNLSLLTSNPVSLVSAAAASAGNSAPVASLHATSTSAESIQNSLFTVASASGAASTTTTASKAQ
UniProt Q14651: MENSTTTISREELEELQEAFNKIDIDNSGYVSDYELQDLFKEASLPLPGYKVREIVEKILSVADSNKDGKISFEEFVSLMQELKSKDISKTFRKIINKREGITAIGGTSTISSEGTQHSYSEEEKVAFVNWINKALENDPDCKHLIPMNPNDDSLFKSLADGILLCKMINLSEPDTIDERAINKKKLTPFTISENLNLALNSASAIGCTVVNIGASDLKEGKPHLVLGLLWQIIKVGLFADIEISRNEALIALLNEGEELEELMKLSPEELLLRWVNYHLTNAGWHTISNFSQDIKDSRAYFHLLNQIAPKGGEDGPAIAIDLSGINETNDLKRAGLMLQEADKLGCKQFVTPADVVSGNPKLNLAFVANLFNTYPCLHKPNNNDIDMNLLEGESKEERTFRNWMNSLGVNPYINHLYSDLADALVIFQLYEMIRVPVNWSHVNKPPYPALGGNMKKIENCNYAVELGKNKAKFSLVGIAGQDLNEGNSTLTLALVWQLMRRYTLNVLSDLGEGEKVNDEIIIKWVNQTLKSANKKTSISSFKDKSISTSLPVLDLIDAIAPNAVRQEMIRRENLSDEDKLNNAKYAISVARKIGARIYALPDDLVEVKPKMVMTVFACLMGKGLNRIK

What was measured:
Assay in all cases: log2 fold change, soluble protein after heating vs DMSO (PISA); higher = thermal stabilisation; K562 lysate, 10 uM; active = over 0.2 and 3.5 SD of the protein, either way, in both replicates (recomputed)
[1] = compound: CS(=O)(=O)CCNCc1ccc(-c2ccc3ncnc(Nc4ccc(OCc5cccc(F)c5)c(Cl)c4)c3c2)o1 [lapatinib]
In short: (§1)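 Dounce homogenisation of K562 pellets in PBS pH 7.4 with 1 mM MgCl2 produced a crude extract, used at 1 mg/mL protein. Exposure to 10 μM compound lasted 30 min, and aliquots were then heated for 3 min across 48°C-58°C, pooled and brought to 0.5% NP-40 at 4°C. The supernatant after 21,000xg for 90 min was quantified by TMTpro 16plex LC-MS/MS with channel sums equalised. Duplicate values are given as log-two fold change in thermal stability relative to solvent controls.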

[2] = compound: CS(=O)(=O)N1CCN(Cc2cc3nc(-c4cccc5[nH]ncc45)nc(N4CCOCC4)c3s2)CC1 [pictilisib]
In short: as §1

[3] = compound: C[C@@H](Oc1cc(-c2cnn(C3CCNCC3)c2)cnc1N)c1c(Cl)ccc(F)c1Cl [crizotinib]
In short: as §1

[4] = compound: C[C@H](C1=CC=C(C=C1)C(=O)NC2=C3C=CNC3=NC=C2)N
In short: as §1

[5] = compound: C[C@H](Nc1ncnc2nc[nH]c12)c1cc2cccc(Cl)c2c(=O)n1-c1ccccc1 [duvelisib]
In short: as §1

[6] = compound: Cc1cc(Nc2cc(CN3CCOCC3)c3nc(C)c(Cc4ccc(Cl)cc4F)n3n2)n[nH]1 [gandotinib]
In short: as §1

[7] = compound: Cc1cc(Nc2cc(N3CCN(C)CC3)nc(Sc3ccc(NC(=O)C4CC4)cc3)n2)n[nH]1 [tozasertib]
In short: as §1

[8] = compound: Cc1ccc(-n2nc(C(C)(C)C)cc2NC(=O)Nc2ccc(OCCN3CCOCC3)c3ccccc23)cc1 [doramapimod]
In short: as §1

[9] = compound: Cc1ccc(NC(=O)c2ccc(CN3CC[C@H](N(C)C)C3)c(C(F)(F)F)c2)cc1Nc1nccc(-c2cncnc2)n1 [bafetinib]
In short: as §1

[10] = compound: Cc1cccc(CC(=O)N2CCc3c2ccc(-c2cn(C)c4ncnc(N)c24)c3F)n1
In short: as §1

[11] = compound: Cc1cn(-c2cc(NC(=O)c3ccc(C)c(Nc4nccc(-c5cccnc5)n4)c3)cc(C(F)(F)F)c2)cn1 [nilotinib]
In short: as §1

[12] = compound: Cc1nc(Nc2n[nH]c3c2CN(C(=O)N[C@H](CN(C)C)c2ccccc2)C3(C)C)c2sccc2n1
In short: as §1

[13] = compound: Cc1nc(Nc2ncc(C(=O)Nc3c(C)cccc3Cl)s2)cc(N2CCN(CCO)CC2)n1 [dasatinib]
In short: as §1

[14] = compound: Cc1ncc(-c2ccnc(Nc3ccc(S(C)(=O)=O)cc3)n2)n1C(C)C
In short: as §1

[15] = compound: Cn1cc(-c2ccc3c(c2)CCN3C(=O)Cc2cccc(C(F)(F)F)c2)c2c(N)ncnc21
In short: as §1

[16] = compound: Cn1cc(CNCC2CCN(c3ncc(C(=O)NO)cn3)CC2)c2ccccc21 [quisinostat]
In short: as §1

[17] = compound: Cn1cncc1[C@@](N)(c1ccc(Cl)cc1)c1ccc2c(c1)c(-c1cccc(Cl)c1)cc(=O)n2C [tipifarnib]
In short: as §1

[18] = compound: NC(=O)Nc1cc(-c2cccc(F)c2)sc1C(=O)N[C@H]1CCCNC1
In short: as §1

[19] = compound: NC(=O)c1cnc(N[C@@H]2CCCC[C@@H]2N)nc1Nc1cccc(-n2nccn2)c1
In short: as §1

[20] = compound: NC1(c2ccc(-c3nc4ccn5c(=O)[nH]nc5c4cc3-c3ccccc3)cc2)CCC1
In short: as §1

Measured: log2 fold change

PPAN isoform 3 (UniProt Q9NQ55)
inactive: [1] 0.002 | [2] 0.018 | [3] -0.083 | [4] -0.078 | [5] -0.006 | [6] 0.012 | [7] -0.039 | [8] 0.068 | [9] -0.042 | [10] 0.099 | [11] 0.047 | [12] -0.064 | [13] -0.017 | [14] 0.023 | [15] 0.001 | [16] -0.093 | [17] -0.033 | [18] 0.005 | [19] 0.011 | [20] -0.016

PPA2 (UniProt Q9H2U2)
inactive: [1] -0.008 | [2] -0.006 | [3] 0.023 | [4] -0.025 | [5] -0.001 | [6] 0.009 | [7] -0.008 | [8] -0.024 | [9] 0.018 | [10] -0.005 | [11] 0.017 | [12] -0.033 | [13] 0.012 | [14] -0.107 | [15] -0.018 | [16] 0.003 | [17] -0.027 | [18] 0.003 | [19] -0.011 | [20] -0.004

POLR2M (UniProt P0CAP2)
inactive: [1] -0.034 | [2] -0.055 | [3] 0.016 | [4] -0.031 | [5] 0.015 | [6] 0.02 | [7] 0.185 | [8] 0.009 | [9] -0.011 | [10] 0.041 | [11] -0.033 | [12] -0.014 | [13] -0.032 | [14] 0.012 | [15] -0.056 | [16] -0.015 | [17] 0.007 | [18] 0.012 | [19] 0.002 | [20] 0.014

PLEKHM2 (UniProt Q8IWE5)
inactive: [1] -0.066 | [2] -0.016 | [3] -0.058 | [4] -0.002 | [5] -0.023 | [6] -0.029 | [7] -0.007 | [8] 0.022 | [9] -0.06 | [10] 0.015 | [11] 0.036 | [12] -0.071 | [13] 0.075 | [14] -0.022 | [15] 0.063 | [16] -0.064 | [17] 0.012 | [18] 0.003 | [19] 0.027 | [20] -0.153

PPIA (UniProt P62937)
inactive: [1] 0.007 | [2] -0.009 | [3] 0.023 | [4] 0.02 | [5] -0.011 | [6] -0.02 | [7] 0.051 | [8] 0.008 | [9] 0.039 | [10] -0.019 | [11] -0.037 | [12] 0.007 | [13] -0.008 | [14] -0.009 | [15] -0.015 | [16] 0.029 | [17] 0.021 | [18] -0.007 | [19] 0.025 | [20] 0.007

POGLUT2 (UniProt Q6UW63)
inactive: [1] 0.042 | [2] -0.01 | [3] -0.041 | [4] -0.013 | [5] 0.005 | [6] -0.003 | [7] 0.033 | [8] 0.011 | [9] -0.038 | [10] 0.02 | [11] 0.026 | [12] -0.015 | [13] -0.007 | [14] -0.04 | [15] 0.013 | [16] -0.019 | [17] 0.026 | [18] 0.024 | [19] -0.023 | [20] 0.001

POP7 (UniProt O75817)
inactive: [1] 0.002 | [2] -0.018 | [3] 0.018 | [4] 0.063 | [5] -0.016 | [6] 0.117 | [7] -0.009 | [8] 0.015 | [9] -0.12 | [10] 0.016 | [11] -0.017 | [12] -0.198 | [13] 0.015 | [14] 0.016 | [15] -0.024 | [16] 0.03 | [17] -0.14 | [18] 0.016 | [19] -0.019 | [20] -0.013

PLK1 (UniProt P53350)
inactive: [1] -0.024 | [2] 0.013 | [3] -0.179 | [4] 0.168 | [5] 0.043 | [6] -0.088 | [7] 0.003 | [8] 0.03 | [9] -0.019 | [10] -0.055 | [11] 0.014 | [12] -0.073 | [13] -0.004 | [14] 0.008 | [15] -0.015 | [16] -0.021 | [17] 0.032 | [18] -0.193 | [19] -0.043 | [20] 0.01

POC5 (UniProt Q8NA72)
inactive: [1] -0.133 | [2] -0.12 | [3] 0.02 | [4] 0.022 | [5] -0.041 | [6] 0.107 | [7] -0.086 | [8] -0.023 | [9] 0.051 | [10] 0.031 | [11] 0.01 | [12] 0.058 | [13] -0.159 | [14] 0.09 | [15] -0.081 | [16] 0.007 | [17] 0.005 | [18] -0.005 | [19] -0.128 | [20] 0.034

POLR3F (UniProt Q9H1D9)
inactive: [1] 0.017 | [2] -0.014 | [3] 0.005 | [4] -0.005 | [5] 0.049 | [6] 0.004 | [7] 0.041 | [8] -0.001 | [9] -0.003 | [10] -0.036 | [11] 0.009 | [12] -0.008 | [13] 0.006 | [14] -0.03 | [15] -0.001 | [16] 0.012 | [17] -0.007 | [18] 0.016 | [19] -0.002 | [20] -0.015

POLD2 (UniProt P49005)
inactive: [1] 0.009 | [2] -0.03 | [3] -0.02 | [4] -0.093 | [5] 0.02 | [6] 0.008 | [7] 0.017 | [8] 0.013 | [9] -0.043 | [10] 0.049 | [11] -0.019 | [12] -0.004 | [13] -0.018 | [14] -0.029 | [15] -0.021 | [16] 0.006 | [17] -0.007 | [18] 0.026 | [19] -0.006 | [20] -0.006

POLRMT (UniProt O00411)
inactive: [1] -0.031 | [2] -0.136 | [3] -0.027 | [4] 0.017 | [5] -0.006 | [6] -0.157 | [7] 0.06 | [8] -0.04 | [9] -0.049 | [10] 0.09 | [11] -0.015 | [12] 0.076 | [13] -0.028 | [14] 0.039 | [15] 0.075 | [16] 0 | [17] -0.042 | [18] -0.003 | [19] 0.012 | [20] 0.043

POLR2D (UniProt O15514)
inactive: [1] -0.025 | [2] -0.087 | [3] 0.007 | [4] 0.085 | [5] -0.025 | [6] 0.05 | [7] 0.023 | [8] -0.034 | [9] -0.104 | [10] -0.035 | [11] -0.083 | [12] 0.052 | [13] -0.014 | [14] -0.028 | [15] 0.039 | [16] -0.013 | [17] 0.13 | [18] -0.026 | [19] 0.02 | [20] 0.003

POLA2 (UniProt Q14181)
inactive: [1] 0.008 | [2] -0.013 | [3] -0.023 | [4] 0.07 | [5] -0.018 | [6] -0.05 | [7] -0.006 | [8] 0.025 | [9] -0.009 | [10] -0.017 | [11] 0.013 | [12] -0.005 | [13] 0 | [14] -0.033 | [15] -0.002 | [16] -0.028 | [17] 0.003 | [18] 0.009 | [19] -0.023 | [20] 0

POU2F1 isoform 6 (UniProt P14859)
inactive: [1] 0.014 | [2] 0.014 | [3] 0.035 | [4] 0.076 | [5] -0.018 | [6] -0.012 | [7] 0.013 | [8] -0.053 | [9] 0.011 | [10] -0.06 | [11] 0.078 | [12] -0.011 | [13] 0.015 | [14] 0.046 | [15] 0.03 | [16] 0.05 | [17] -0.027 | [18] 0.053 | [19] 0.01 | [20] 0.02

PLS1 (UniProt Q14651)
inactive: [1] 0.008 | [2] -0.005 | [3] -0.018 | [4] 0.02 | [5] 0.023 | [6] -0.023 | [7] -0.065 | [8] -0.045 | [9] -0.002 | [10] -0.017 | [11] 0.014 | [12] 0.009 | [13] -0.004 | [14] 0.03 | [15] 0.008 | [16] -0.01 | [17] -0.012 | [18] 0 | [19] -0.008 | [20] -0.005
